The numbers were not newly measured in US9993454B2, “Solid nanoparticle formulation of water insoluble pharmaceutical substances with reduced Ostwald ripening” (Luminus Biosciences, Inc., priority 2006, dated 2018), which cites them from elsewhere.

As to `CC(=O)O[C@H]1C(=O)[C@@]2(C)[C@H]([C@H](OC(=O)c3ccccc3)[C@]3(O)C[C@H](OC(=O)[C@H](O)[C@@H](NC(=O)c4ccccc4)c4ccccc4)C(C)=C1C3(C)C)[C@]1(OC(C)=O)CO[C@@H]1C[C@@H]2O` [Paclitaxel], the aqueous solubility entry is “about 12 mg/liter”.
